Results are given in words; binding and its absence hold for the method and conditions named. Binding seen in cells or lysates may run through a third protein. A yes stands for co-enrichment or nearness to the bait. Other partners may have been found.
Molecular target: T1, goat recombinant IL4 (rIL4) (goat) (UniProt P79155)
T1 sequence: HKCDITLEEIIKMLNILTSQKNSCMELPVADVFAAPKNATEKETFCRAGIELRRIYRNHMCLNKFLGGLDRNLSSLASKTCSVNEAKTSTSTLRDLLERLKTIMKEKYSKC
Assay: affinity purification with mass spectrometry; immunoprecipitates of rIL4 with HcESPs from the Co-IP; in-solution trypsin digestion, LC/MS-MS (Q Exactive), Mascot 2.2; at least 2 unique peptides; only the target purified

| Substance | binding |
| --- | --- |
| Glutathione S-transferase domain containing protein (HcGST), native in HcESPs (Haemonchus contortus) | binds |
| Transthyretin domain containing protein (HcTTR), native in HcESPs (Haemonchus contortus) | binds |
| Globin domain containing protein (HcGB) (Haemonchus contortus) | binds |
| Calponin actin-binding domain containing protein (HcCab), native in HcESPs (Haemonchus contortus) | binds |
| Enolase domain containing protein (HcENO) (Haemonchus contortus) | binds |
| Glyceraldehyde-3-phosphate dehydrogenase (HcGAPDH) (Haemonchus contortus) | binds |
| Phosphoenolpyruvate carboxykinase domain containing protein (HcPEPCK) (Haemonchus contortus) | binds |

— article PMC6549353
